Experiment: Quantification of ion-suppression/enhancement (matrix effect), Matuszewski method, post-spiked WAX-aided extracts vs neat solutions, LC-MS/MS
For `C[C@]12CC[C@H]3[C@@H](CCC4=CC(=O)CC[C@@]43C)[C@@H]1CC[C@@H]2O` [Testosterone], the “Matrix Effect (%)” value was 99.5%.
With `CC(=O)N1CCN(c2ccc(OCC3COC(Cn4ccnc4)(c4ccc(Cl)cc4Cl)O3)cc2)CC1` (stereo not drawn) [Ketoconazole] the “Matrix Effect (%)” value was 102%.
In the case of `CNCCC=C1c2ccccc2CCc2ccccc21` [Nortriptyline], the “Matrix Effect (%)” value is reported as 95.6%.
For `CC(C)NCC(O)COc1cccc2ccccc12` (stereo not drawn) [Propranolol], the “Matrix Effect (%)” value was 96.5%.
With `CC(N)Cc1ccccc1` (stereo not drawn) [Amphetamine] the “Matrix Effect (%)” value was 96%.
With `Cc1cc(N(C)C)ccc1-c1nc2ccc(-c3nc4ccc(N5CCN(C)CC5)cc4[nH]3)cc2[nH]1` [Methylproamine] the “Matrix Effect (%)” value was 104.2%.
With `Cc1ccc(/C(=C\CN2CCCC2)c2ccccn2)cc1` [Triprolidine] the “Matrix Effect (%)” value was 93.7%.
For `CNCCC=C1c2ccccc2COc2ccccc21` [Nordoxepin], the “Matrix Effect (%)” value was 99.4%.
For `CN(C)CCC=C1c2ccccc2COc2ccccc21` [Doxepin], the “Matrix Effect (%)” value was 92.3%.
In the case of `CNCCC(Oc1ccc(C(F)(F)F)cc1)c1ccccc1` (stereo not drawn) [Fluoxetine], the “Matrix Effect (%)” value is reported as 93.5%.
With `C=C[C@H]1C[N@@]2CC[C@H]1C[C@@H]2[C@@H](O)c1ccnc2ccc(OC)cc12` [Quinidine] the “Matrix Effect (%)” value was 95.4%.
With `CN(C)CCC=C1c2ccccc2CCc2ccccc21` [Amitryptyline] the “Matrix Effect (%)” value was 96.3%.
